# Results reported in article PMC5996148.
# The chains behind the UniProt entries cited, without tags or fusion partners.
# UniProt Q9H7M9, whole entry: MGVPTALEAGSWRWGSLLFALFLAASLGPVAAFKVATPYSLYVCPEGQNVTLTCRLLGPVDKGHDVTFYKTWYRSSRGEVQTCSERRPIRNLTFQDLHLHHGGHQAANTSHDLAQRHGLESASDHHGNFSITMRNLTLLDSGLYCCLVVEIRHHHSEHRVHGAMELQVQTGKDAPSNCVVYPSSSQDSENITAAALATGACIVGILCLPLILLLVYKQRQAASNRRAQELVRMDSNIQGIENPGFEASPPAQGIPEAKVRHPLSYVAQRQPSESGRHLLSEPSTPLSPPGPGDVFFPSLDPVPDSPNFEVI
# Some of the results follow. For some of these results: Construct or isoform of the protein are uncertain.
# Key:
# Test in all cases: protein microarray (ProtoArray v5.0), streptavidin-Alexa Fluor 647
# Conditions in all cases: 3'-biotin; 20 mM Tris (pH 7.5), 5 mM MgCl2, 100 mM KCl, 0.1% Tween-20, A/T-rich and random oligonucleotide blockers; temperature not stated; high values mean tight binding
# [1] = test system: C-terminal-binding protein 1 (human)
# [2] = test system: C-type lectin domain family 12 member A (human)
# [3] = test system: C-type lectin domain family 2 member D (human)
# [4] = test system: C10orf116 (human)
# [5] = test system: C10orf26 (human)
# [6] = test system: C10orf35 (human)
# [7] = test system: C10orf46 (human)
# [8] = test system: C10orf49 (human)
# [9] = molecular target: C10orf54 (UniProt Q9H7M9)
# [10] = molecular target: T1, C10orf58 (UniProt Q9BRX8)
# T1 sequence: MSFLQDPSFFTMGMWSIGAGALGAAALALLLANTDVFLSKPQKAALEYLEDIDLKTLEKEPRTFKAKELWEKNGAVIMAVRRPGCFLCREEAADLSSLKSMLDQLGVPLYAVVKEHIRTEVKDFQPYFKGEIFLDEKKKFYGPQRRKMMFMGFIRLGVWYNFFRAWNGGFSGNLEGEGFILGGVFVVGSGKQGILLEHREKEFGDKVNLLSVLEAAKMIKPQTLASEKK
sequence,measurement,setting,value
GGGAGGCTGAGGCAGG [G4-1 biotinylated (PQS2)],binding signal,[1],-0.356 z-score
same,binding signal,[2],-0.36 z-score
same,binding signal,[3],-0.321 z-score
same,binding signal,[4],-0.277 z-score
same,binding signal,[5],-0.351 z-score
same,binding signal,[6],-0.331 z-score
same,binding signal,[7],-0.329 z-score
same,binding signal,[8],-0.273 z-score
same,binding signal,[9],-0.303 z-score
same,binding signal,[10],-0.332 z-score

# 2 consecutive entries out of the list so far:
sequence,measurement,setting,value
GGGAGGCTGAGGCAGG [G4-1 biotinylated (PQS2)],binding signal,[1],-0.356 z-score
same,binding signal,[2],-0.36 z-score
